The text below walks through data of paper doi:10.1101/2022.09.01.506260.

No constants are given. Whether binding was seen depends on the method and setting. In cells and extracts the contact can be indirect. Some entries that bind do so weakly or less than the wild type. Tags and fused reporters may be left off the sequences shown.

Assay in all cases: co-IP
Assay [1] has as its target T1, HA-tagged PEAK3^FL WT (human), Q6ZS72.
T1 chain: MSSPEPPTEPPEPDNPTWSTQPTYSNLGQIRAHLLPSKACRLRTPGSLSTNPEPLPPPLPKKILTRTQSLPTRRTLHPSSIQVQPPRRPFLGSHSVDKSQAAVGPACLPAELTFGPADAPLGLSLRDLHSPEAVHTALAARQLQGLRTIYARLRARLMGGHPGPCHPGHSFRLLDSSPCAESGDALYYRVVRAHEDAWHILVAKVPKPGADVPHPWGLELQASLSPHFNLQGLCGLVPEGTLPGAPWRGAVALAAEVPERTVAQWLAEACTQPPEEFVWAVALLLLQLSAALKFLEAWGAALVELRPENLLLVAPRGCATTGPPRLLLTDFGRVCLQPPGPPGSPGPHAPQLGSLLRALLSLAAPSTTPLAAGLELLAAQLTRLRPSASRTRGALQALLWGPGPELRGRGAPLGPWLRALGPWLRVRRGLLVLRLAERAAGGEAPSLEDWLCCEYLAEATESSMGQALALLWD
Conditions: remark: other sources report otherwise.

Assay [2] addresses T2, HA-tagged PEAK3^FL-A436E dimerization mutant (human) (UniProt Q6ZS72).
T2 sequence: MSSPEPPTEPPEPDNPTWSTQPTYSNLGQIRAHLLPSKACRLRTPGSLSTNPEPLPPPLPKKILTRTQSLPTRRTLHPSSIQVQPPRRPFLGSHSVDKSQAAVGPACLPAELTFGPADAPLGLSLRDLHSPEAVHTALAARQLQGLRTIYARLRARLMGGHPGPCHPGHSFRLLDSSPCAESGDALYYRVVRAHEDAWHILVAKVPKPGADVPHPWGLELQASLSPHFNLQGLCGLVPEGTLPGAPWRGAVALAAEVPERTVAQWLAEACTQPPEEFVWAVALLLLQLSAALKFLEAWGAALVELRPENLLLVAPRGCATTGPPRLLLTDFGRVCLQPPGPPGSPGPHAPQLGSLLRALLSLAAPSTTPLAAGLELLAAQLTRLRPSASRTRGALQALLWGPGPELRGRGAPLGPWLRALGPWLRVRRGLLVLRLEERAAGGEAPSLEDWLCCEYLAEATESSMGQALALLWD

Assay [3] addresses T3, HA-tagged PEAK3^FL-C453E dimerization mutant (human) (UniProt Q6ZS72).
T3 sequence: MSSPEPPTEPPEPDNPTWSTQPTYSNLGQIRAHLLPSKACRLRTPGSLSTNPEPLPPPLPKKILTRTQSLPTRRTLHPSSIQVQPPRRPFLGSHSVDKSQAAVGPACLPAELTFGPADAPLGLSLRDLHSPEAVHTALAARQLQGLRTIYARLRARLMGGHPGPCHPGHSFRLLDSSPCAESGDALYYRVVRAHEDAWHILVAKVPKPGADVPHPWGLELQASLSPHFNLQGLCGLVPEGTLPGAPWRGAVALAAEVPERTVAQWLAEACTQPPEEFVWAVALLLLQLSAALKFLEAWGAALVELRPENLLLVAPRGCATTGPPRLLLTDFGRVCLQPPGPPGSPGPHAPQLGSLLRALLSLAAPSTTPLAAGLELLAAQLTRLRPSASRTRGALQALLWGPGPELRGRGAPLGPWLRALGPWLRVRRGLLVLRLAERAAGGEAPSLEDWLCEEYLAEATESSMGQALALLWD

Assay [4] addresses T4, HA-tagged PEAK3^FL-L146E dimerization mutant (human) (UniProt Q6ZS72).
T4 sequence: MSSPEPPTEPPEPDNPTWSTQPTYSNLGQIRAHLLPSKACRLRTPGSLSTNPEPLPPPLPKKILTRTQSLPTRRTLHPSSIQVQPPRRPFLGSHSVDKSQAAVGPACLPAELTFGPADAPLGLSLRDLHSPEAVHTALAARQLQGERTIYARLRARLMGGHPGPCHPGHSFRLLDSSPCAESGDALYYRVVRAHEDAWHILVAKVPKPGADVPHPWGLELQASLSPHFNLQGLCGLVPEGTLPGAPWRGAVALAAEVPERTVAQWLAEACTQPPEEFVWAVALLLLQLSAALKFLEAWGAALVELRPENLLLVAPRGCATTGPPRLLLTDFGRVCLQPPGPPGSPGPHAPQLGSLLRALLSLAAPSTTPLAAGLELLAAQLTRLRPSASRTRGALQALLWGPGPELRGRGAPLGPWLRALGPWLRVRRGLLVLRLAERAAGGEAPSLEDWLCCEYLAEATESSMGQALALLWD

B1: endogenous CrkII (HEK293), P46108-1 1-304 (protein)
chain: MAGNFDSEERSSWYWGRLSRQEAVALLQGQRHGVFLVRDSSTSPGDYVLSVSENSRVSHYIINSSGPRPPVPPSPAQPPPGVSPSRLRIGDQEFDSLPALLEFYKIHYLDTTTLIEPVSRSRQGSGVILRQEEAEYVRALFDFNGNDEEDLPFKKGDILRIRDKPEEQWWNAEDSEGKRGMIPVPYVEKYRPASASVSALIGGNQEGSHPQPLGGPEPGPYAQPSVNTPLPNLQNGPIYARVIQKRVPNAYDKTALALEVGELVKVTKINVSGQWEGECNGKRGHFPFTHVRLLDQQNPDEDFS
For the molecule B1, the binding result in assay [1] is reported as “binds”.

B2: Flag-tagged PEAK3^FL WT (protein, UniProt Q6ZS72 1-473)
chain: MSSPEPPTEPPEPDNPTWSTQPTYSNLGQIRAHLLPSKACRLRTPGSLSTNPEPLPPPLPKKILTRTQSLPTRRTLHPSSIQVQPPRRPFLGSHSVDKSQAAVGPACLPAELTFGPADAPLGLSLRDLHSPEAVHTALAARQLQGLRTIYARLRARLMGGHPGPCHPGHSFRLLDSSPCAESGDALYYRVVRAHEDAWHILVAKVPKPGADVPHPWGLELQASLSPHFNLQGLCGLVPEGTLPGAPWRGAVALAAEVPERTVAQWLAEACTQPPEEFVWAVALLLLQLSAALKFLEAWGAALVELRPENLLLVAPRGCATTGPPRLLLTDFGRVCLQPPGPPGSPGPHAPQLGSLLRALLSLAAPSTTPLAAGLELLAAQLTRLRPSASRTRGALQALLWGPGPELRGRGAPLGPWLRALGPWLRVRRGLLVLRLAERAAGGEAPSLEDWLCCEYLAEATESSMGQALALLWD
Take B2: the binding result in assay [2], in assay [3] and in assay [4] was “no binding” in each case.
